Measured values taken from patent publication US12516015B2 (AMALIVE LIMITED, priority 2009, dated 2026).
Read-outs that look alike come from different tables or passages of the source.

Key:
[1] = 37° C., paddle speed 150 rpm
[2] = 100% oxygen environment; for degradation by NMR and IR: 14 days
[3] = for overall stability characterization of the form: conclusion from stability studies
[4] = DVS; for water uptake: 0-90% RH
Procedure: The sample was then dried by maintaining a 0% humidity environment until no further weight change was recorded.

[5] = for Main Peak % Peak Area: HPLC
[6] = water slurry
[7] = UV radiation
[8] = 3 tons of force for about 90 minutes
[9] = 120° C. ambient pressure, day 14, peak at retention time 6.763-6.766 min
[10] = 120° C. ambient pressure, day 14, peak at retention time 7.569-7.583 min
[11] = 120° C. ambient pressure, day 14

Compound: NCCC[C@H](N)C(=O)O.O=C(O)Cc1ccccc1 [Form III, L-ornithine phenyl acetate]
- Calculated Intrinsic Dissolution Rates ([1]; pH 1.0): 0.49 mg/cm^2/s
- Calculated Intrinsic Dissolution Rates ([1]; pH 4.5): 0.44 mg/cm^2/s
- Calculated Intrinsic Dissolution Rates ([1]; pH 6.7): 0.45 mg/cm^2/s
- degradation by IR ([2]; 7 days): no significant degradation
- phase change ([3]; 40° C./75% RH, 7 days): transformation to Form II occurred
- overall stability characterization of the form [3]: most likely metastable
- hygroscopicity characterization [4]: non-hygroscopic
- stability over range of humidity [4]: stable over a wide range of humidity
- water uptake [4]: about 2.0 % by weight
- Results: chemical degradation ([5]; 80° C., no vacuum, 7 days): no degradation
- Results: physical form ([5]; 80° C., no vacuum, 7 days): Form III
- Results: chemical degradation ([5]; 80° C., no vacuum, 14 days): no degradation
- Results: physical form ([5]; 80° C., no vacuum, 14 days): Form III
- Degradation/Impuirty Peak(s) % Peak Area ([5]; 120° C. ambient pressure, day 7, peak at retention time 6.763 min): 6.103%
- Degradation/Impuirty Peak(s) % Peak Area ([5]; 120° C. ambient pressure, day 7, peak at retention time 7.582 min): 45.161%
- Degradation/Impuirty Peak(s) % Peak Area [5, 9]: 5.975%
- Degradation/Impuirty Peak(s) % Peak Area [5, 10]: 56.459%
- Degradation/Impuirty Peak(s) % Peak Area ([5]; 120° C. under vacuum (ca. 600 psi), day 7, peak at retention time 7.598 min): 9.389%
- Degradation/Impuirty Peak(s) % Peak Area ([5]; 120° C. under vacuum (ca. 600 psi), day 14, peak at retention time 7.555 min): 11.500%
- Results: API remaining ([5]; 120° C., no vacuum, 7 days): < 30 % API
- Results: physical form ([5]; 120° C., no vacuum, 7 days): Form II
- Results: API remaining ([5]; 120° C., no vacuum, 14 days): < 30 % API
- Results: physical form ([5]; 120° C., no vacuum, 14 days): Form II
- chemical degradation ([5]; 120° C., under vacuum): greater chemical degradation compared to Forms I and II
- physical form transition ([5]; 120° C., under vacuum): does not transition to Form II
- Results: API remaining ([5]; 120° C., vacuum, 7 days): > 95 % API
- Results: physical form ([5]; 120° C., vacuum, 7 days): Form III
- Results: API remaining ([5]; 120° C., vacuum, 14 days): 88.8 % API
- Results: physical form ([5]; 120° C., vacuum, 14 days): Form III
- chemical degradation ([5]; 120° C., without a vacuum): substantial chemical degradation
- physical form transition ([5]; 120° C., without a vacuum): converts to Form II
- Main Peak % Peak Area ([5]; 120° C. ambient pressure, day 7): 35.786%
- Main Peak % Peak Area [5, 11]: 30.394%
- Main Peak % Peak Area ([5]; 120° C. under vacuum (ca. 600 psi), day 7): 88.885%
- Main Peak % Peak Area ([5]; 120° C. under vacuum (ca. 600 psi), day 14): 87.389%
- physical form conversion by IR ([6]; varied pHs, 7-day test): converted to Form II
- HPLC purity after storage ([6]; varied pHs, 7 days): ≥ 95%
- degradation by NMR and IR ([6]; varied pHs, 7 days): no degradation
- degradation by NMR and IR ([7]; 7 days): no degradation
- density after compression [8]: 1.078 kg/m^3
- form transition on compression [8]: did not exhibit a transition

Compound: NCCC[C@H](N)C(=O)O.O=C(O)Cc1ccccc1 [Form I, L-ornithine phenyl acetate]
- Calculated Intrinsic Dissolution Rates ([1]; pH 1.0): 0.41 mg/cm^2/s
- Calculated Intrinsic Dissolution Rates ([1]; pH 4.5): 0.44 mg/cm^2/s
- Calculated Intrinsic Dissolution Rates ([1]; pH 6.7): 0.37 mg/cm^2/s
- degradation by NMR and IR [2]: no signs of degradation
- phase change ([3]; 40° C./75% RH, 7 days): transformation to Form II occurred
- overall stability characterization of the form [3]: metastable
- hygroscopicity characterization [4]: non-hygroscopic
- stability over range of humidity [4]: stable over a wide range of humidity
- water uptake [4]: about 0.2 % by weight
- Results: chemical degradation ([5]; 80° C., no vacuum, 7 days): no degradation
- Results: physical form ([5]; 80° C., no vacuum, 7 days): Form II
- Results: chemical degradation ([5]; 80° C., no vacuum, 14 days): no degradation
- Results: physical form ([5]; 80° C., no vacuum, 14 days): Form II
- Results: chemical degradation ([5]; 80° C., vacuum, 7 days): no degradation
- Results: physical form ([5]; 80° C., vacuum, 7 days): Form II
- Results: chemical degradation ([5]; 80° C., vacuum, 14 days): no degradation
- Results: physical form ([5]; 80° C., vacuum, 14 days): Form II
- Degradation/Impuirty Peak(s) % Peak Area [5, 9]: 3.948%
- Degradation/Impuirty Peak(s) % Peak Area [5, 10]: 42.525%
- Degradation/Impuirty Peak(s) % Peak Area ([5]; 120° C. ambient pressure, day 14, peak at retention time 9.707 min): 3.628%
- Results: API remaining ([5]; 120° C., no vacuum, 7 days): > 96 % API
- Results: physical form ([5]; 120° C., no vacuum, 7 days): Form II
- Results: API remaining ([5]; 120° C., no vacuum, 14 days): 37 % API
- Results: physical form ([5]; 120° C., no vacuum, 14 days): Form II
- Results: API remaining ([5]; 120° C., vacuum, 7 days): > 99.9 % API
- Results: physical form ([5]; 120° C., vacuum, 7 days): Form II
- Results: API remaining ([5]; 120° C., vacuum, 14 days): > 96 % API
- Results: physical form ([5]; 120° C., vacuum, 14 days): Form II
- chemical degradation ([5]; 120° C., without a vacuum): substantial chemical degradation
- Main Peak % Peak Area [5, 11]: 37.826%
- physical form conversion ([6]; pH 1.0, 4.0, 7.0, 10.0, 13.2, all samples, 7 or 14 days): converted to Form II
- degradation by NMR and IR ([6]; varied pHs, 14 days): did not degrade
- degradation by NMR and IR ([7]; 14 days): no degradation
- density after compression [8]: 1.197 kg/m^3

Compound: NCCC[C@H](N)C(=O)O.O=C(O)Cc1ccccc1 [Form II, L-ornithine phenyl acetate]
- Calculated Intrinsic Dissolution Rates ([1]; pH 1.0): 0.26 mg/cm^2/s
- Calculated Intrinsic Dissolution Rates ([1]; pH 4.5): 0.34 mg/cm^2/s
- Calculated Intrinsic Dissolution Rates ([1]; pH 6.7): 0.62 mg/cm^2/s
- degradation by NMR and IR [2]: no signs of degradation
- phase change ([3]; 40° C./75% RH, 7 days): failed to produce an observable phase change
- overall stability characterization of the form [3]: stable
- hygroscopicity characterization [4]: non-hygroscopic
- stability over range of humidity [4]: stable over a wide range of humidity
- water uptake [4]: about 0.3 % by weight
- Results: chemical degradation ([5]; 80° C., no vacuum, 7 days): no degradation
- Results: physical form ([5]; 80° C., no vacuum, 7 days): Form II
- Results: chemical degradation ([5]; 80° C., no vacuum, 14 days): no degradation
- Results: physical form ([5]; 80° C., no vacuum, 14 days): Form II
- Results: chemical degradation ([5]; 80° C., vacuum, 7 days): no degradation
- Results: physical form ([5]; 80° C., vacuum, 7 days): Form II
- Results: chemical degradation ([5]; 80° C., vacuum, 14 days): no degradation
- Results: physical form ([5]; 80° C., vacuum, 14 days): Form II
- Results: API remaining ([5]; 120° C., no vacuum, 7 days): 98.6 % API
- Results: physical form ([5]; 120° C., no vacuum, 7 days): Form II
- Results: API remaining ([5]; 120° C., no vacuum, 14 days): > 95 % API
- Results: physical form ([5]; 120° C., no vacuum, 14 days): Form II
- Results: API remaining ([5]; 120° C., vacuum, 7 days): 98.7 % API
- Results: physical form ([5]; 120° C., vacuum, 7 days): Form II
- Results: API remaining ([5]; 120° C., vacuum, 14 days): > 95 % API
- Results: physical form ([5]; 120° C., vacuum, 14 days): Form II
- chemical degradation at elevated temperatures ([5]; all trials): did not chemically degrade
- physical stability at elevated temperatures ([5]; all trials: 80° or 120° C., with or without vacuum, 7 or 14 days): stable
- degradation by NMR and IR ([6]; varied pHs, 14 days): did not degrade
- degradation by NMR and IR ([7]; 14 days): no degradation
- density after compression [8]: 1.001 kg/m^3
- form transition on compression [8]: did not exhibit a transition

Compound: NCCC[C@H](N)C(=O)O.O=C(O)Cc1ccccc1 [Form V, L-ornithine phenyl acetate]
- chemical composition ([3]; 40° C./75% RH, 7 days): chemical composition was unchanged
- phase change ([3]; 40° C./75% RH, 7 days): transformation to Form II occurred
- overall stability characterization of the form [3]: most likely metastable
- hygroscopicity characterization [4]: non-hygroscopic
- stability over range of humidity [4]: not stable over a wide range of humidity
- water uptake [4]: about 0.75 % by weight
